## Screening data, single-dose tests

The chains behind the UniProt entries cited, without tags or fusion partners.
UniProt P9WFT3, whole entry: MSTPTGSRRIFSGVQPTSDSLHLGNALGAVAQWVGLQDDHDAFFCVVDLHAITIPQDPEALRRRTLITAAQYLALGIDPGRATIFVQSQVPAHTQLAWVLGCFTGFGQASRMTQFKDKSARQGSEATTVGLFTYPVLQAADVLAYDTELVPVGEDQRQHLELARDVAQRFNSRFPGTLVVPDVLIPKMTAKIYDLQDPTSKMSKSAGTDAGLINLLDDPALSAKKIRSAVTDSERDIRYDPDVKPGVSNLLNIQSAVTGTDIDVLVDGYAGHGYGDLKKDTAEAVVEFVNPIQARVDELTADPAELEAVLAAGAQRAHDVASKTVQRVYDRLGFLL
UniProt I6X8D2, whole entry: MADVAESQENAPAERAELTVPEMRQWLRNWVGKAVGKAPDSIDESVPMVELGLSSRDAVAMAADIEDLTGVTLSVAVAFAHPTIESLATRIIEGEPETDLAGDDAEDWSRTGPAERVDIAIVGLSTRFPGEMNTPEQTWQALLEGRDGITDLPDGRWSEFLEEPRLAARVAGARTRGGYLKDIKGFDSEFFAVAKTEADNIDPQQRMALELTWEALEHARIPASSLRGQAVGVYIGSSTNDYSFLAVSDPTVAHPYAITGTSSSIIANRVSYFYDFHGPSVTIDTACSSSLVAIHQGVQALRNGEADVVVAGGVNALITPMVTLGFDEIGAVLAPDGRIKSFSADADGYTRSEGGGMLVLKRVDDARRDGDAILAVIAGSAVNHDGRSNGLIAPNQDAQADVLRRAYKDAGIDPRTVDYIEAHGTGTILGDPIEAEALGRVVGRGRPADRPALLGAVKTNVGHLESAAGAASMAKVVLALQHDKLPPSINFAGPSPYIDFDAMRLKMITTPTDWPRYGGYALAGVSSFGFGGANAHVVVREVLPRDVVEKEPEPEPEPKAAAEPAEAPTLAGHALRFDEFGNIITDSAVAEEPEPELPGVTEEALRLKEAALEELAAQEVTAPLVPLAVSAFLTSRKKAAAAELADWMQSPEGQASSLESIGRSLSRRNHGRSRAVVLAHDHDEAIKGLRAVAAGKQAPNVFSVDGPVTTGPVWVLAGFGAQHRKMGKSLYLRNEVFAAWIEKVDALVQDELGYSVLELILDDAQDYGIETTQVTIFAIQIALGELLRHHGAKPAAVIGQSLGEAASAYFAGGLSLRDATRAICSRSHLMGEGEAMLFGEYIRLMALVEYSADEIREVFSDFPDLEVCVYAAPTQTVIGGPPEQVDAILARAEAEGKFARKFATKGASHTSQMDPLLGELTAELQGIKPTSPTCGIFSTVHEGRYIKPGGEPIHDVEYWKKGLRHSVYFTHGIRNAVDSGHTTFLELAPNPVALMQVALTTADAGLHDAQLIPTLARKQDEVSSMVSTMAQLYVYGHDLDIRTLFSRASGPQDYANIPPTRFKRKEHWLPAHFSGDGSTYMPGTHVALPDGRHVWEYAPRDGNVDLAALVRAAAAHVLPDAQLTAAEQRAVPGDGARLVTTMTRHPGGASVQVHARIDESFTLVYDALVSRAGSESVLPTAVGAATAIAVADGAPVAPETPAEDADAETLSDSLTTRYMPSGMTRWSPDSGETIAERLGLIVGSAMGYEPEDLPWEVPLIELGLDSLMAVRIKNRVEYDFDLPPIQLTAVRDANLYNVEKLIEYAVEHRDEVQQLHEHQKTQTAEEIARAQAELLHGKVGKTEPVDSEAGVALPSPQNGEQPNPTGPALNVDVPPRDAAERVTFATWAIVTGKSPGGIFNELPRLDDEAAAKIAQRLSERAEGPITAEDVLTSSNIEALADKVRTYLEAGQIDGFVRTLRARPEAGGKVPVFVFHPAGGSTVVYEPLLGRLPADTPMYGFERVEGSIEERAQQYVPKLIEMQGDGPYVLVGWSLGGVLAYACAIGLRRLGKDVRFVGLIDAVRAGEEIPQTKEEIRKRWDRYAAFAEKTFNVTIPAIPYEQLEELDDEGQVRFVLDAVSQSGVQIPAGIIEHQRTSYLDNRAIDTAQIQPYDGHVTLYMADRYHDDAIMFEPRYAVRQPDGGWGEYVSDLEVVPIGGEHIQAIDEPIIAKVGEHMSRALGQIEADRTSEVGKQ

MtTrpRS: 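Enzyme assay of tryptophanyl-tRNA synthetase; the read-out is not stated. Target: Tryptophan-tRNA ligase, Mycobacterium tuberculosis (UniProt P9WFT3). Concentration: 10 µM. Direction is not recorded; retested compounds ran higher, which suggests that high means inhibition. Of about 65,000 compounds tested this way, about 64 (0.098%) reached 50% or more in at least one test.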
Pks13 thioesterase: 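Enzyme assay of the thioesterase domain of polyketide synthase 13; the read-out is not stated. Target: Polyketide synthase Pks13, Mycobacterium tuberculosis (UniProt I6X8D2). Compounds at 30 µM. Higher reads as stronger inhibition (inferred from which compounds were picked for retests). About 67,000 compounds were tested under these conditions; 0.46% (about 300) showed 50% or more at least once.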

Each number is a percent effect as filed. How 0% and 100% were set is not recorded. Most values in the screen are low, and negative values occur. The compounds are a random part of those screened.

Compound: COc1ccccc1OCc1cc(C(=O)N2CC=CC2C(C)C)n[nH]1 (stereo unspecified)
MtTrpRS: -2.464%
Pks13 thioesterase: -34.44%

Compound: O=C(N[C@@H]1CCNC[C@H]1O)c1ccc(F)c(Cl)c1
MtTrpRS: -0.8514%
Pks13 thioesterase: -8.209%

Compound: O=C(NCCc1nccs1)c1n[nH]c2c1CCC2
MtTrpRS: 0.9238%
Pks13 thioesterase: -11.79%

Compound: CC(C)(C)c1ccn(C2(C(=O)O)CCN(c3nccc(N)n3)CC2)n1
MtTrpRS: -3.412%
Pks13 thioesterase: -6.314%

Compound: Fc1cccc(CN2CCC(c3noc(-c4cnccn4)n3)CC2)c1F
MtTrpRS: -3.201%
Pks13 thioesterase: 10.28%

Compound: COc1c(CNC2CCN(CC(=O)NC3CC3)CC2)c(C)nn1C
MtTrpRS: -1.701%
Pks13 thioesterase: -10.14%

Compound: COc1ccc(C2CCCN2S(=O)(=O)N(C)C)cc1 (stereo unspecified)
MtTrpRS: 4.158%
Pks13 thioesterase: -30.94%

Compound: O=C(Nc1nc2c(s1)CN(S(=O)(=O)C1CC1)CC2)c1c(F)cccc1F
MtTrpRS: 0.3564%
Pks13 thioesterase: -2.304%

Compound: Cc1nc2n(n1)CC(NCC(=O)Nc1cc(C)on1)CC2 (stereo unspecified)
MtTrpRS: -6.08%
Pks13 thioesterase: -2.437%

Compound: CC(=O)NCCc1cc2nc(-c3ccncc3)ccn2n1
MtTrpRS: -1.11%
Pks13 thioesterase: -8.051%

Compound: CS(=O)(=O)N1C[C@@H]2CC[C@H](C1)N(C(=O)CCc1ccsc1)C2
MtTrpRS: 5.623%
Pks13 thioesterase: -32.5%

Compound: Cc1ncc(C(=O)NC2CCc3nccn3C2)c(C(C)C)n1 (stereo unspecified)
MtTrpRS: -0.7523%
Pks13 thioesterase: -12.13%

Compound: CN(C)c1ncnc2c1CCN(S(=O)(=O)c1cccc3nsnc13)C2
MtTrpRS: 9.084%
Pks13 thioesterase: -18.63%

Compound: CC(=O)N1CCC2(C1)c1ccccc1S(=O)(=O)N2C (stereo unspecified)
Pks13 thioesterase: -16.73%

Compound: O=C(CCn1cccn1)NCC(c1cccs1)N1CCOCC1 (stereo unspecified)
MtTrpRS: 1.348%
Pks13 thioesterase: -5.284%

Compound: CNc1ncc(CN(C)C(=O)CCc2cc3n(n2)CCCNC3)cn1
MtTrpRS: 6.111%
Pks13 thioesterase: 0.7459%

Compound: CNc1cncc(C2CCCN2Cc2ccnc(C)n2)n1 (stereo unspecified)
Pks13 thioesterase: 21.44%

Compound: CCS(=O)(=O)Nc1ccc2oc(C)c(C(=O)OC)c2c1
MtTrpRS: 2.917%
Pks13 thioesterase: -13.71%

Compound: Cc1n[nH]c(C)c1CCC(=O)N[C@@H]1CCC[C@@H](Oc2ccccc2)[C@@H]1O
MtTrpRS: 14.06%
Pks13 thioesterase: -27.02%

Compound: Cc1c[nH]cc1C(=O)N1CCN(CCc2cccs2)CC1
MtTrpRS: 0.9651%
Pks13 thioesterase: -5.006%

Compound: COc1ccnc(CN2CCC(O)(c3ccc(C)cn3)CC2)c1OC
MtTrpRS: -1.444%
Pks13 thioesterase: -29.18%

Compound: CS(=O)(=O)NC1CCc2[nH]c(=O)ccc2C1 (stereo unspecified)
Pks13 thioesterase: 2.259%

Compound: COC(=O)c1ccc2c(-c3ccnc(N[C@@H](C)CO)n3)c[nH]c2c1
Pks13 thioesterase: 48.07%

The first 2 entries again:

For COc1ccccc1OCc1cc(C(=O)N2CC=CC2C(C)C)n[nH]1 (stereo unspecified) the result was MtTrpRS: -2.464%; Pks13 thioesterase: -34.44%.
For O=C(N[C@@H]1CCNC[C@H]1O)c1ccc(F)c(Cl)c1 the result was MtTrpRS: -0.8514%; Pks13 thioesterase: -8.209%.

Measurements from “University of Dundee, Small-Polar-MMV Screening Library” (2021), ChEMBL document CHEMBL3988442.